# Test system: inhibitorischen Autorezeptoren in hippocampalem Gewebe
# Assay: Transmitter release study: in vitro acetylcholine release from electrically stimulated hippocampal slices, antagonism of carbachol
# Type: cell-based, Ratten
# Details: selectivity: cortex M₁ binding versus ACh release in hippocampus
# Description: B. Transmitter Release Studien
# Die Versuche zur in-vitro Freisetzung von Acetylcholin aus hippocampalen Gewebeschnitten wurden in Analogie zu Anord nungen durchgeführt, die für die Freisetzung von 5-HT aus Hypothalamus- bzw. Hippocampus-Gewebe beschrieben sind (vgl. M.H. Richards, Naunyn Schmiedeberg's Arch. Pharmacol. 329, 359-366 (1985) und T.J. Feuerstein, G. Hertting und R. Jackisch, Europ. J. Pharmacol. 107, 233-242 (1985)).
# Männliche Ratten (Stamm Chbb:Thom, Gewicht 200 bis 300 g) wurden ohne Vorbehandlung dekapitiert; das gesamte Gehirn wurde sofort entnommen und unter Eiskühlung zerlegt. Gemäß den oben beschriebenen Verfahren wurde der Hippocampus in 0,4 mm dicke Schnitte mit Hilfe eines McIlwain-Gewebehackers geschnitten. Die Gewebeschnitte wurden 30 Minuten lang bei 37°C vorincubiert in Gegenwart von 0,05 mM ³H-Cholin in Krebs-Henseleit Puffer der folgenden Zusammensetzung: 120 mM NaCl, 4,8 mM KCl, 1,3 mM CaCl₂, 1,2 mM KH₂PO₄, 1,2 mM MgSO₄ und 25 mM NaHCO₃. Der Puffer enthielt zusätzlich 2 g Glucose und 100 mg EDTA. Der Puffer wurde mit Natronlauge auf einen pH-Wert von 7,4 bei 20°C eingestellt. Alle Lösungen wurden kontinuierlich mit 95 % O₂ und 5 % CO₂ gesättigt. Die Gewebeschnitte wurden daraufhin gespült, jeder Gewebeschnitt wurde jeweils willkürlich auf 12 Superfusionseinheiten gegeben und mit der Pufferlösung bei 37°C bei einer Fließgeschwindigkeit von 1 ml/min überspült. Die Gewebeschnitte wurden jeweils von einem Polypropylennetzwerk zwischen zwei Platinelektroden gehalten. Nach 50-minütiger Überspülung wurden 4-Minuten-Fraktionen des Superfusats über eine gesamte Zeitdauer von 92 Minuten gesammelt. Die Gewebeschnitte wurden zweimal elektrisch stimuliert, und zwar 60 Minuten (S1) und 100 Minuten (S2) nach Beginn der Superfusion. Dabei wurden Rechteckimpulse von 2 ms Dauer und mit einer Frequenz von 3 Hz 100 Sekunden lang bei 5 V/cm und 24 mA mittels eines HSE Stimulators II der Firma Hugo Sachs Elektronik, Hugstetten, West-Deutschland, verabreicht. Die zu prüfenden Substanzen wurden dem Puffer ab 20 Minuten vor dem Zeitpunkt S2 zusammen mit dem Agonisten (Carbachol) beigefügt. Am Ende wurden die Gewebeschnitte aus den Kammern entfernt und zur Bestimmung des verbliebenen Tritiums solubilisiert. […]
row,Compound,Verhältnis von IC₅₀ (Cortex) zu pA₂ (ACh-Release)
1,"Cc1scc2c1N(C(=O)CCC#CCN1CCCCCC1)c1ccccc1NC2=O [H, 4,9-Dihydro-3-methyl-4-[6-(hexahydro-1H-1-azepinyl)-1-oxo-4-hexin-1-yl]-10H-thieno[3,4-b][1,5]benzodiazepin-10-on]",7
2,"O=C1Nc2cccnc2N(C(=O)N2CCCC(CCCN3CCCCC3)C2)c2ccccc21 (stereo not shown) [E, 5,11-Dihydro-11-[[3-[3-(1-piperidinyl)-1-propyl]-1-piperidinyl]carbonyl]-6H-pyrido[2,3-b][1,4]benzodiazepin-6-on]",35
3,"CN(CCC1CCCN1C)CC(=O)N1c2ccccc2C(=O)Nc2cccnc21 (stereo not shown) [K, 5,11-Dihydro-11-[[[2-(1-methyl-2-pyrrolidinyl)ethyl]methylamino]acetyl]-6H-pyrido[2,3-b][1,4]benzodiazepin-6-on]",10
4,"CCCN(CCC)CC1CCCCN1CCNC(=O)N1c2ccccc2C(=O)Nc2cccnc21.CS(=O)(=O)O (stereo not shown) [D, 5,11-Dihydro-11-[[[2-[2-[(dipropylamino)methyl]-1-piperidinyl]ethyl]amino]carbonyl]-6H-pyrido[2,3-b][1,4]benzodiazepin-6-on-methansulfonat]",20
5,"O=C1Nc2cccnc2N(C(=O)CCC#CCN2CCCCC2)c2ccccc21 [B, 5,11-Dihydro-11-[1-oxo-6-(1-piperidinyl)-4-hexin-1-yl]-6H-pyrido[2,3-b][1,4]benzodiazepin-6-on]",19
6,"Cc1scc2c1N(C(=O)CN1CCC(CCCN3CCCCC3)CC1)c1ccccc1NC2=O [F, 4,9-Dihydro-3-methyl-4-[[4-[3-(1-piperidinyl)-1-propyl]-1-piperidinyl]acetyl]-10H-thieno[3,4-b][1,5]benzodiazepin-10-on]",3
7,"CCN(CC)CC1COCCN1CCCC(=O)N1c2ccccc2C(=O)Nc2cccnc21 (stereo not shown) [I, 11-[4-[3-[(Diethylamino)methyl]-4-morpholinyl]-1-oxo-1-butyl]-5,11-dihydro-6H-pyrido[2,3-b][1,4]benzodiazepin-6-on]",3
8,"CN(CCC1CCCCCN1C)CC(=O)N1c2ccccc2C(=O)Nc2cccnc21 (stereo not shown) [L, 5,11-Dihydro-11-[[[2-(1-methyl-hexahydro-1H-2-azepinyl)ethyl]methylamino]acetyl]-6H-pyrido[2,3-b][1,4]benzodiazepin-6-on]",11
9,"CCN(CC)CC1CCCCN1CC(=O)N1c2ccccc2C(=O)Nc2cccnc21 (single isomer, unassigned; (+)) [A, (+)-11-[[2-[(Diethylamino)methyl]-1-piperidinyl]acetyl]-5,11-dihydro-6H-pyrido[2,3-b][1,4]benzodiazepin-6-on]",14
10,"CCN(CC)CC1CCCCN1CC(=O)N1c2cc(Cl)ccc2C(=O)Nc2cccnc21 (racemic) [C, (±)-9-Chlor-11-[[2-[(diethylamino)methyl]-1-piperidinyl]acetyl]-5,11-dihydro-6H-pyrido[2,3-b][1,4]benzodiazepin-6-on]",10

# Source: EP0402734A2, “Composition for the treatment of application of the central nervous system and to enhance cerebral perfusion” (Dr. Karl Thomae GmbH, priority 1989, dated 1990)
